Expression grades refer to the transcript from which the peptide derives; gene names, where given, were looked up from the sequence.
System: source genes of the peptides (mRNA)
Test: Expression scores and profiles of source genes, in-house RNASeq of tumor and normal tissues (Table 18, FIGS. 2)
Parameters: species or system human
Details: FIGS. 2A-2I, source gene of the peptide

SEQ ID NO.: 59: peptide found in TNC (gene looked up) (KLLDPQEFTL; listed as Homo sapiens)
expression profile of source gene in cancers vs panel of normal tissues: highly over-expressed or exclusively expressed in different cancers
